No constants are given. Whether binding was seen depends on the method and setting. In cells and extracts the contact can be indirect. Here binding means that the protein was enriched with, or labelled near, the bait; the list need not be complete.
T1: Gadd45a (growth arrest and DNA damage-inducible gene) (human (endogenous in CD4+ T cells)) (UniProt P24522)
T1 sequence: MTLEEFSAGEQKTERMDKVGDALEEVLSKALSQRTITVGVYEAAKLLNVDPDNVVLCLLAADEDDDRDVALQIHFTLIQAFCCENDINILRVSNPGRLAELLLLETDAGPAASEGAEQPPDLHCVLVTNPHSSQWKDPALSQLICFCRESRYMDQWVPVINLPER

By UniProt entry, the sequences of proteins in these tests, tags left out.
UniProt P63104: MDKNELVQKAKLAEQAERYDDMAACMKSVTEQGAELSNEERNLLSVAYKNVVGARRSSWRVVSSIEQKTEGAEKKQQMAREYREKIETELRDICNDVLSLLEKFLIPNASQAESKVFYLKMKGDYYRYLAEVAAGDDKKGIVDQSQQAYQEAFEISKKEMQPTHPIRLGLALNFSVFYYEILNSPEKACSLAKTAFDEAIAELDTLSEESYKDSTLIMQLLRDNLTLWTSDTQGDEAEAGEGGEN
UniProt P60228: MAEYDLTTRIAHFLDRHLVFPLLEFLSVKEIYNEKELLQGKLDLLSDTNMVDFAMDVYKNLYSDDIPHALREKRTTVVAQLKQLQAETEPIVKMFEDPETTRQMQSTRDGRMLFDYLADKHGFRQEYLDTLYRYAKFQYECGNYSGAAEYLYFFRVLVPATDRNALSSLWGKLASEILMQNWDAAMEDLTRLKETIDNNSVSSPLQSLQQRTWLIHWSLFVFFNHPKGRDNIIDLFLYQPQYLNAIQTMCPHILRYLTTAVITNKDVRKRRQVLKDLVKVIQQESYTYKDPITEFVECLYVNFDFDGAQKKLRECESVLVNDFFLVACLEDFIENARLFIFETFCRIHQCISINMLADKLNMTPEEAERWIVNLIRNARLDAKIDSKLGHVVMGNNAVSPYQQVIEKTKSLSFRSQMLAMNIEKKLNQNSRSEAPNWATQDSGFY
UniProt P04406: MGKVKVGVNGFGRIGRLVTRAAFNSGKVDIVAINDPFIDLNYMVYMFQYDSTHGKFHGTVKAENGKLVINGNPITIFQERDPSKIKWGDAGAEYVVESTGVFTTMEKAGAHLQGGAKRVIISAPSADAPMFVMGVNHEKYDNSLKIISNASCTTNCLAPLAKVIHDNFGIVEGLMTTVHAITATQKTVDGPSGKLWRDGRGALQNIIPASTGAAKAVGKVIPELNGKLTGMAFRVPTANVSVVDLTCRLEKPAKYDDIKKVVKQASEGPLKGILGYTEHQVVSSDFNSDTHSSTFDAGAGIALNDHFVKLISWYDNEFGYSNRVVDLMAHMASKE
UniProt O60812: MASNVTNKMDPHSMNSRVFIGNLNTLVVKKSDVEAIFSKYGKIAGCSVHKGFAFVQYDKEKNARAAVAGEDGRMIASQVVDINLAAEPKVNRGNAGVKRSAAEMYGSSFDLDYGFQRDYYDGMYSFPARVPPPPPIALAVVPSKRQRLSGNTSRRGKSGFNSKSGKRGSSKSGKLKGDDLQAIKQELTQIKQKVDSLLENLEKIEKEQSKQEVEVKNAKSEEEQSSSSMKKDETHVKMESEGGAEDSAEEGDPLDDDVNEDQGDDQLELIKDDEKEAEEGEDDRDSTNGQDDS
UniProt P09429: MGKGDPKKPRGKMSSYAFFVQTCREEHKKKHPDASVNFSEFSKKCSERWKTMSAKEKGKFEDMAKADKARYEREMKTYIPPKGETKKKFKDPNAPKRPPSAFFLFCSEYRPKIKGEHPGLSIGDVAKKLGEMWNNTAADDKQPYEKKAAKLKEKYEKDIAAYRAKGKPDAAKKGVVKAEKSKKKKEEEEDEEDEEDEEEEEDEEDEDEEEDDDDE
UniProt Q01518: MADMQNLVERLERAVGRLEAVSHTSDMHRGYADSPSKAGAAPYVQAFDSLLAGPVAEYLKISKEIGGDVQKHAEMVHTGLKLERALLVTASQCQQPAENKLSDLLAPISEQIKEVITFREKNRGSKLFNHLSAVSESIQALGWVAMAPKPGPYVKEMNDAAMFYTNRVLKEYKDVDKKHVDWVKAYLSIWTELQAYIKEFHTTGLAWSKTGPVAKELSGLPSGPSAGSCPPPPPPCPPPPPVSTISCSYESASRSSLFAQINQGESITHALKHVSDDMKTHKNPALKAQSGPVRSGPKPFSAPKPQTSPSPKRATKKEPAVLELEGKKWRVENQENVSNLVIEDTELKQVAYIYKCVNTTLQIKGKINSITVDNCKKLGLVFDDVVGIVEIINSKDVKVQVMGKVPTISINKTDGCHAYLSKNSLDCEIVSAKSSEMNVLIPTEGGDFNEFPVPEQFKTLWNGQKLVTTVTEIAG
UniProt P07737: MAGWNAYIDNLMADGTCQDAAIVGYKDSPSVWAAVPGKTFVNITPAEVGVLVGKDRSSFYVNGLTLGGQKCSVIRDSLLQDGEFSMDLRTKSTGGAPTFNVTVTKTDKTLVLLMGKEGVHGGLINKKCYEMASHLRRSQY
UniProt Q06323: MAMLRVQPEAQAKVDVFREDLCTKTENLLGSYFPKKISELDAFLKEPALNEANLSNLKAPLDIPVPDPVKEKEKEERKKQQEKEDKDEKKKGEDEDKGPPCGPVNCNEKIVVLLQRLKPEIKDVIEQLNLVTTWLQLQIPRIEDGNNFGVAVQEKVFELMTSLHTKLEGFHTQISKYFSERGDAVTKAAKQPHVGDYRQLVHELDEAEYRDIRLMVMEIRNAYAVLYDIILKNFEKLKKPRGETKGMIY
UniProt A6NMY6: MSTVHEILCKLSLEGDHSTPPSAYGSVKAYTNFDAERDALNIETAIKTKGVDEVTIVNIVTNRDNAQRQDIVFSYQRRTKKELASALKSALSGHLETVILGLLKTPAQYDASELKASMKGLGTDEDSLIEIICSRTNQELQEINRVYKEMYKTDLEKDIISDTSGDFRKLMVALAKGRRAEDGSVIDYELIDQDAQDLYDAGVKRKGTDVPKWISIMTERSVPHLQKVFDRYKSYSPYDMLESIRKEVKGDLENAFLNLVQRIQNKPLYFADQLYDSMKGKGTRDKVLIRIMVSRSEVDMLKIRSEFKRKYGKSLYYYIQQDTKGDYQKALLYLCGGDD


biological target: T1, Gadd45a (growth arrest and DNA damage-inducible gene) (human (endogenous in CD4+ T cells)); test: affinity purification with mass spectrometry; CD4+ T-cell lysates incubated overnight at 4°C with rabbit anti-human Gadd45a antibody or isotype-matched rabbit IgG, protein A/G PLUS-agarose beads 1 hour at 4°C; SDS-PAGE, Coomassie blue, bands of ~30, ~26 and ~55 kDa excised, LS-MS/MS

Molecule | binding
14-3-3 protein zeta/delta (from UniProt P63104 1-245) | binds
Eukaryotic translation initiation factor 3 subunit E (from UniProt P60228 1-445) | binds
Glyceraldehyde-3-phosphate dehydrogenase (from UniProt P04406 1-335) | binds
Heterogeneous nuclear ribonucleoprotein C-like 1 (from UniProt O60812 1-293) | binds
High mobility group protein B1 (from UniProt P09429 1-215) | binds
Isoform 1 of Adenylyl cyclase-associated protein 1 (from UniProt Q01518 1-475) | binds
Profilin-1 (from UniProt P07737 1-140) | binds
Proteasome activator complex subunit 1 (from UniProt Q06323 1-249) | binds
Putative annexin A2-like protein (from UniProt A6NMY6 1-339) | binds
cDNA FLJ56389, highly similar to Elongation factor 1-gamma (human (endogenous in CD4+ T cells)) | binds
Lysozyme C (protein, UniProt P61626 19-148) KVFERCELARTLKRLGMDGYRGISLANWMCLAKWESGYNTRATNYNAGDRSTDYGIFQINSRYWCNDGKTPGAVNACHLSCSALLQDNIADAVACAKRVVRDPQGIRAWVAWRNRCQNRDVRQYVQGCGV | binds
Ras-related protein Rab-27B (protein, UniProt O00194 1-218) MTDGDYDYLIKLLALGDSGVGKTTFLYRYTDNKFNPKFITTVGIDFREKRVVYNAQGPNGSSGKAFKVHLQLWDTAGQERFRSLTTAFFRDAMGFLLMFDLTSQQSFLNVRNWMSQLQANAYCENPDIVLIGNKADLPDQREVNERQARELADKYGIPYFETSAATGQNVEKAVETLLDLIMKRMEQCVEKTQIPDTVNGGNSGNLDGEKPPEKKCIC | binds
U3 small nucleolar ribonucleoprotein protein IMP3 (protein, UniProt Q9NV31 1-184) MVRKLKFHEQKLLKQVDFLNWEVTDHNLHELRVLRRYRLQRREDYTRYNQLSRAVRELARRLRDLPERDQFRVRASAALLDKLYALGLVPTRGSLELCDFVTASSFCRRRLPTVLLKLRMAQHLQAAVAFVEQGHVRVGPDVVTDPAFLVTRSMEDFVTWVDSSKIKRHVLEYNEERDDFDLEA | binds
Isoform 1 of Ankyrin repeat and SOCS box protein 13 (protein, UniProt Q8WXK3 1-278) MEPRAADGCFLGDVGFWVERTPVHEAAQRGESLQLQQLIESGACVNQVTVDSITPLHAASLQGQARCVQLLLAAGAQVDARNIDGSTPLCDACASGSIECVKLLLSYGAKVNPPLYTASPLHEACMSGSSECVRLLIDVGANLEAHDCHFGTPLHVACAREHLDCVKVLLNAGANVNAAKLHETALHHAAKVKNVDLIEMLIEFGGNIYARDNRGKKPSDYTWSSSAPAKCFEYYEKTPLTLSQLCRVNLRKATGVRGLEKIAKLNIPPRLIDYLSYN | binds
Serine/arginine-rich splicing factor 3 (protein, UniProt P84103 1-164) MHRDSCPLDCKVYVGNLGNNGNKTELERAFGYYGPLRSVWVARNPPGFAFVEFEDPRDAADAVRELDGRTLCGCRVRVELSNGEKRSRNRGPPPSWGRRPRDDYRRRSPPPRRRSPRRRSFSRSRSRSLSRDRRRERSLSRERNHKPSRSFSRSRSRSRSNERK | binds
Isoform 1 of Serine/threonine-protein phosphatase 2A 55 (protein, UniProt Q00005 1-443) MEEDIDTRKINNSFLRDHSYATEADIISTVEFNHTGELLATGDKGGRVVIFQREQESKNQVHRRGEYNVYSTFQSHEPEFDYLKSLEIEEKINKIRWLPQQNAAYFLLSTNDKTVKLWKVSERDKRPEGYNLKDEEGRLRDPATITTLRVPVLRPMDLMVEATPRRVFANAHTYHINSISVNSDYETYMSADDLRINLWNFEITNQSFNIVDIKPANMEELTEVITAAEFHPHHCNTFVYSSSKGTIRLCDMRASALCDRHTKFFEEPEDPSNRSFFSEIISSISDVKFSHSGRYIMTRDYLTVKVWDLNMENRPIETYQVHDYLRSKLCSLYENDCIFDKFECVWNGSDSVIMTGSYNNFFRMFDRNTKRDVTLEASRENSKPRAILKPRKVCVGGKRRKDEISVDSLDFSKKILHTAWHPSENIIAVAATNNLYIFQDKVN | binds
Tumor necrosis factor alpha-induced protein 8-like protein 3 (protein, UniProt Q5GJ75 1-292) MGKPRQNPSTLVSTLCEAEPKGKLWVNGYAGTQGTRDATLQTRLIPLSFHLQRGKGLAAPLSALSAPRLPERPADGRVAVDAQPAARSMDSDSGEQSEGEPVTAAGPDVFSSKSLALQAQKKILSKIASKTVANMLIDDTSSEIFDELYKVTKEHTHNKKEAHKIMKDLIKVAIKIGILYRNNQFSQEELVIVEKFRKKLNQTAMTIVSFYEVEYTFDRNVLSNLLHECKDLVHELVQRHLTPRTHGRINHVFNHFADVEFLSTLYSLDGDCRPNLKRICEGINKLLDEKVL | binds
Erythrocyte band 7 integral membrane protein (protein, UniProt P27105 1-288) MAEKRHTRDSEAQRLPDSFKDSPSKGLGPCGWILVAFSFLFTVITFPISIWMCIKIIKEYERAIIFRLGRILQGGAKGPGLFFILPCTDSFIKVDMRTISFDIPPQEILTKDSVTISVDGVVYYRVQNATLAVANITNADSATRLLAQTTLRNVLGTKNLSQILSDREEIAHNMQSTLDDATDAWGIKVERVEIKDVKLPVQLQRAMAAEAEASREARAKVIAAEGEMNASRALKEASMVITESPAALQLRYLQTLTTIAAEKNSTIVFPLPIDMLQGIIGAKHSHLG | binds
